Measurements published in article PMC7819943, “Rice protein-binding microarrays: a tool to detect cis-acting elements near promoter regions in rice”.
The other results are listed elsewhere or left out.

Protein sequences, listed by entry. Tags and fused reporters are not part of them.
UniProt Q0JBA9, entry or part of it: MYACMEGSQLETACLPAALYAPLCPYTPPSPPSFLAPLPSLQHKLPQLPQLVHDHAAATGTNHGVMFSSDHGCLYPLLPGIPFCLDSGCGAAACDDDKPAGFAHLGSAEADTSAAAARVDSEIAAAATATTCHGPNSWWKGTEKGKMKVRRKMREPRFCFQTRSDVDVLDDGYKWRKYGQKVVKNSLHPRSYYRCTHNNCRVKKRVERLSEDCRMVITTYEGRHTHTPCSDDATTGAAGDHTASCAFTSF

These sequences were tested against OsWRKY34 (Oryza sativa, UniProt Q0JBA9 1-250) (assay: protein-binding microarray (RPBM); PBS, 2% BSA, 51.3 ng/ul salmon testes DNA, 50 uM zinc acetate, 200 nM TF, 25 C, 1 h; high values mean tight binding). Details: protein: recombinant; tags: N-terminal polyhistidine and DsRed monomer fusion (pET32a); label: CyDye5-dUTP incorporated in the synthesized complementary strand; 3' TTTTT single-stranded linker to array surface; dsDNA, one strand shown.
Method in brief: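 Binding signal here means per-feature fluorescence intensity in arbitrary units. The values were read on an Axon 4000B scanner after a custom Agilent array, double-stranded by primer extension with Cy5-dUTP, was incubated with 200 nM protein at 25 °C for 1 h in PBS with 2% BSA, salmon testes DNA and 50 µM zinc acetate, then washed. The proteins were transcription factors with an N-terminal polyhistidine tag and DsRed, expressed in E. coli BL21-CodonPlus and purified on Ni–NTA.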
“TCCGTAATATGATACATGTATACCACTTCCTCGCATTTTGCGGAGTCACCTAGTGCAG” was tested, and the binding signal was 9680 fluorescence intensity (a.u.).
For “CAAACCAACATTTATCTTTCTTTTTTATATATGTTTTTTTCGGAGTCACCTAGTGCAG”, the binding signal was 9790 fluorescence intensity (a.u.).
“GACTCCCTATATCTGGTATTGCGGTTTGAAGACAAATTTGCGGAGTCACCTAGTGCAG” was tested, and the binding signal was 8690 fluorescence intensity (a.u.).
With “CACACTCTATCTTCTCTTTCTCTTCTCCTCGCGACTCCGCCGGAGTCACCTAGTGCAG” the binding signal was 11100 fluorescence intensity (a.u.).
In the case of “CGCCGCCGCCGTCCATCGCCGCCGCCGTCGCCGCTGCCGTCGGAGTCACCTAGTGCAG”, the binding signal is reported as 8020 fluorescence intensity (a.u.).
For “TCTTCTGGTTTCCATGTTTTTTCCCTAATGATTAGCCTCTCGGAGTCACCTAGTGCAG”, the binding signal was 8830 fluorescence intensity (a.u.).
With “GTAGACCGCCTACTATAATCTCCTCCGCCGCCGCACCTCGCGGAGTCACCTAGTGCAG” the binding signal was 9460 fluorescence intensity (a.u.).
For “TATGTGCGATCATTGCGTGTGTGCTGATTTTCGGGGAGGACGGAGTCACCTAGTGCAG”, the binding signal was 10300 fluorescence intensity (a.u.).
With “ATTGTGGCTGTTTTCTTCCTCTCCAGCTTCCAATCTGATCCGGAGTCACCTAGTGCAG” the binding signal was 8140 fluorescence intensity (a.u.).
In the case of “GTACGTGAATTTTTATCATCTTTTGTCCTTTCATCTCATACGGAGTCACCTAGTGCAG”, the binding signal is reported as 9760 fluorescence intensity (a.u.).
With “GGGGCGTGAATTAGATTTAACCTATATATCGGGGAGTCTACGGAGTCACCTAGTGCAG” the binding signal was 8750 fluorescence intensity (a.u.).
In the case of “TTGATTTTTTGACCTCGATCCACCATCGTCGACCTTGATCCGGAGTCACCTAGTGCAG”, the binding signal is reported as 8450 fluorescence intensity (a.u.).
For “TATTACCTTTGTTTTTTATGATTTTTTTATAATATTTGATCGGAGTCACCTAGTGCAG”, the binding signal was 8680 fluorescence intensity (a.u.).
“CGTTTTTGTGTCATAACCGTCATAACGTTTCCGCTCCTGACGGAGTCACCTAGTGCAG” was tested, and the binding signal was 12300 fluorescence intensity (a.u.).
For “AACTTTTTCTATGCTTTCCTTGTTAGTACTAGTTTCTGATCGGAGTCACCTAGTGCAG”, the binding signal was 10900 fluorescence intensity (a.u.).
For “TGTCTCACCTGTGTGCTATGACCACCAACCTGTCTGTCTCCGGAGTCACCTAGTGCAG”, the binding signal was 9080 fluorescence intensity (a.u.).
In the case of “TTTGTCTAGGCTTATGTCAATGTGTTATTGGTTTTGTCTTCGGAGTCACCTAGTGCAG”, the binding signal is reported as 10500 fluorescence intensity (a.u.).
In the case of “CTTCACCACCACGGGATACACGCTGCTCCACAACTTCAGCCGGAGTCACCTAGTGCAG”, the binding signal is reported as 10300 fluorescence intensity (a.u.).
“GGCAACCCAACCGATTCGCGCTCACGCCACCTGCAATCCGCGGAGTCACCTAGTGCAG” was tested, and the binding signal was 8880 fluorescence intensity (a.u.).
With “TGCTCTACGAGTAAATGGCTTTGTTCTTTATTTTTGCTAACGGAGTCACCTAGTGCAG” the binding signal was 8040 fluorescence intensity (a.u.).
In the case of “TTTCCCCGCCCACCGGTCAAACCGGTCACCCTCCCCACTACGGAGTCACCTAGTGCAG”, the binding signal is reported as 8290 fluorescence intensity (a.u.).
“GTTTGATTATTTGCTGCCTCCAGTGGGTTGGGTGTTCTTGCGGAGTCACCTAGTGCAG” was tested, and the binding signal was 8340 fluorescence intensity (a.u.).
“CGCTCTTGAGTCTTGACTTTCTCTGCCACGAGAGCTCATCCGGAGTCACCTAGTGCAG” was tested, and the binding signal was 8470 fluorescence intensity (a.u.).
“GATTGACGAAGTTACCATGGACGTCTTACTGTTGACTGCGCGGAGTCACCTAGTGCAG” was tested, and the binding signal was 8780 fluorescence intensity (a.u.).
For “GCCTCTCTCTCTCTCTCTCTCTCTCTCTCTCTTTCTCCGACGGAGTCACCTAGTGCAG”, the binding signal was 9660 fluorescence intensity (a.u.).
With “ATATCCCACAGCTAATTACATATATTTTTTTAATATCCTACGGAGTCACCTAGTGCAG” the binding signal was 8170 fluorescence intensity (a.u.).
“TTAGGGTGAATGATGATTGGTTTTCTGGTTTATGGGGTAACGGAGTCACCTAGTGCAG” was tested, and the binding signal was 11600 fluorescence intensity (a.u.).
In the case of “GCTCTCTCTTCTCAACTATGAACCCTATTCCACGAAAGCACGGAGTCACCTAGTGCAG”, the binding signal is reported as 10800 fluorescence intensity (a.u.).
With “CTAGCCGCCCGCGCCGCCACCTCGCCGGCCTCTAGCCGCCCGGAGTCACCTAGTGCAG” the binding signal was 8230 fluorescence intensity (a.u.).
In the case of “CTCTCTCTCTCTCTCTCTCTTTCTCTTTAGTTAATTATATCGGAGTCACCTAGTGCAG”, the binding signal is reported as 12800 fluorescence intensity (a.u.).
With “TCCCAAGCATTCGTTTTTATAGCCTCACCACAGCTCAAAACGGAGTCACCTAGTGCAG” the binding signal was 8960 fluorescence intensity (a.u.).
With “CTGTCTGGTACTTGGTTGACTCTTGCACCTGCTCCATGACCGGAGTCACCTAGTGCAG” the binding signal was 8880 fluorescence intensity (a.u.).
In the case of “TACCACGTCGTCTTCTCTTCTCTATCTTCTCCGCCTCCGGCGGAGTCACCTAGTGCAG”, the binding signal is reported as 11400 fluorescence intensity (a.u.).
For “CACCACACCAACCGCACCAACCCCAACCCCGCGCGCGCTCCGGAGTCACCTAGTGCAG”, the binding signal was 8120 fluorescence intensity (a.u.).
For “TTTGCTGCATCACCATTGTCATCCATATATTCCATATTCCCGGAGTCACCTAGTGCAG”, the binding signal was 8490 fluorescence intensity (a.u.).
“TTTGTGTACATGTTTCGAGACTTTTGCATTTCTATTTTTCCGGAGTCACCTAGTGCAG” was tested, and the binding signal was 11900 fluorescence intensity (a.u.).
In the case of “TCGGGCAGGAGGAGGAAGTTGGGTGGTGGGGACGATTCCGCGGAGTCACCTAGTGCAG”, the binding signal is reported as 8710 fluorescence intensity (a.u.).
With “GTACTTTACGCACAACTTTTTATTTTTTATATTTGCATAACGGAGTCACCTAGTGCAG” the binding signal was 8300 fluorescence intensity (a.u.).
In the case of “GCCAGCGAGCTGTGTTTCTTTTTTGGTGGTTCTTGTATTTCGGAGTCACCTAGTGCAG”, the binding signal is reported as 9320 fluorescence intensity (a.u.).
“TTTTTTTTCTGACTTTTCTTTTTTTCTTTTTCCCTGTTTTCGGAGTCACCTAGTGCAG” was tested, and the binding signal was 8700 fluorescence intensity (a.u.).
In the case of “TGGCACTCACCTCACCACACACCACTCCACCATCACTCACCGGAGTCACCTAGTGCAG”, the binding signal is reported as 13800 fluorescence intensity (a.u.).
In the case of “CCATCACTTTACCCAGTAATCCACACTAGATATTTATTTTCGGAGTCACCTAGTGCAG”, the binding signal is reported as 8260 fluorescence intensity (a.u.).
